# The list does not hold the whole screen: it gathers tests that were run many times, whatever their T/C, doses with no T/C, and many T/C values between a quarter and a half above the control. Other doses and runs of a compound stand elsewhere. T/C gives the treated animals as a percentage of the vehicle group. Some doses have a count of surviving animals in place of a T/C: the source holds a T/C of zero for them, seemingly a mark for toxic or unscored doses. Some doses without a T/C left all or most animals alive at the check, yet need not have been tolerated: survival well below the control is almost never listed, so the zero probably covers shortened survival too. Survivors were counted at the toxicity check, usually on the fifth day, unless a day is given; later deaths do not show. Schedule codes are those of the source, read here as Q, the interval in days (D) or hours (H), X, the number of doses. Some doses were run more than once; their values stand side by side, smallest first. Where survival is the endpoint, this PubChem deposit counts one and a half times the control or more as active, and values a quarter to a half above the control carry no call in these data; other NCI protocols may use other cut-offs. Some T/C values are followed by the survivors on the day toxicity was checked, most often the fifth; without a count, all were alive then.
# System: CD2F1 mice, L1210 leukemia ip, survival T/C
# Test: NCI In Vivo Anticancer Drug Screen. Data for tumor model L1210 Leukemia (intraperitoneal) in CD2F1 (CDF1) mice
# Conditions: higher T/C = longer survival
# Summary of the method: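 Implant tumor; dose compound or vehicle; measure endpoint in both groups; report treated divided by control.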
# [1] = T/C endpoint: mean survival time, dose: 50.0 mg/kg/injection, schedule: Q01DX009 (ip), vehicle: saline with Tween-80
# [2] = T/C endpoint: mean survival time, dose: 100.0 mg/kg/injection, schedule: Q01DX001 (ip), vehicle: saline with Tween-80
# [3] = T/C endpoint: mean survival time, dose: 400.0 mg/kg/injection, schedule: Q01DX001 (ip), vehicle: saline with Tween-80
# [4] = T/C endpoint: mean survival time, dose: 100.0 mg/kg/injection, schedule: Q01DX009 (ip), vehicle: saline with Tween-80
# [5] = T/C endpoint: mean survival time, dose: 200.0 mg/kg/injection, schedule: Q01DX009 (ip), vehicle: saline with Tween-80
# [6] = T/C endpoint: mean survival time, dose: 400.0 mg/kg/injection, schedule: Q04DX003 (ip), vehicle: saline with Tween-80
# [7] = T/C endpoint: mean survival time, dose: 200.0 mg/kg/injection, schedule: Q04DX003 (ip), vehicle: saline with Tween-80
# [8] = T/C endpoint: mean survival time, dose: 100.0 mg/kg/injection, schedule: Q04DX002 (ip), vehicle: saline with Tween-80
# [9] = T/C endpoint: mean survival time, dose: 400.0 mg/kg/injection, schedule: Q04DX002 (ip), vehicle: saline with Tween-80
# [10] = T/C endpoint: mean survival time, dose: 50.0 mg/kg/injection, schedule: Q01DX009 (ip), vehicle: saline
# [11] = T/C endpoint: median survival time, dose: 400.0 mg/kg/injection, schedule: Q01DX005 (ip), vehicle: saline with Tween-80
# [12] = T/C endpoint: mean survival time, dose: 400.0 mg/kg/injection, schedule: Q01DX009 (ip), vehicle: saline with Tween-80
smiles,measurement,setting,value
CCC(=O)N(N=O)c1ccccc1,survivor count,"T/C endpoint: mean survival time, dose: 100.0 mg/kg/injection, schedule: Q01DX001 (ip), vehicle: saline",0 of 6
same,survivor count,"T/C endpoint: mean survival time, dose: 200.0 mg/kg/injection, schedule: Q01DX001 (ip), vehicle: saline",0 of 6
same,survivor count,"T/C endpoint: mean survival time, dose: 400.0 mg/kg/injection, schedule: Q01DX001 (ip), vehicle: saline",0 of 6
C/C(=N/N(C)C)c1ccc2ccccc2c1,survivor count,[1],1 of 6
same,survivor count,[2],1 of 6
same,survivor count,"T/C endpoint: mean survival time, dose: 200.0 mg/kg/injection, schedule: Q01DX001 (ip), vehicle: saline with Tween-80",0 of 6
same,survivor count,[3],0 of 6
O=C1CCc2ccccc2C1C(=O)CC(O)(c1ccccc1)c1ccccc1 (centres undefined),survivor count,[1],6 of 6
same,survivor count,[4],6 of 6
same,survivor count,[5],3 of 6
same,survivor count,[6],1 of 6
O=C(O)C(=O)O.[NH-]C(c1ccccc1)C([NH-])c1ccccc1.[Pt+2] (centres undefined),T/C,"T/C endpoint: mean survival time, dose: 25.0 mg/kg/injection, schedule: Q04DX003 (ip), vehicle: saline with Tween-80",131 % of control
CC1=C(CNc2ncnc3nc[nH]c23)CC=CC1,survivor count,[7],6 of 6
CCN(CC)CCCC(C)Nc1ccnc2cc(Cl)ccc12 (centres undefined),survivor count,"T/C endpoint: mean survival time, dose: 200.0 mg/kg/injection, schedule: Q04DX002 (ip), vehicle: saline",0 of 3
same,survivor count,"T/C endpoint: mean survival time, dose: 400.0 mg/kg/injection, schedule: Q04DX002 (ip), vehicle: saline",0 of 3
CN1CC2(Cc3ccccc3)c3ccccc3NC2(NC(=O)CCl)C1=O (centres undefined),survivor count,[2],6 of 6
same,survivor count,[8],3 of 3
same,survivor count,[9],3 of 3
COc1ccc(S(=O)[O-])cc1.C[c-]1[c-][c-][c-][c-]1.[C-]#[O+].[C-]#[O+].[Fe+6],survivor count,"T/C endpoint: mean survival time, dose: 50.0 mg/kg/injection, schedule: Q04DX002 (ip), vehicle: other",0 of 3
same,survivor count,"T/C endpoint: mean survival time, dose: 100.0 mg/kg/injection, schedule: Q04DX002 (ip), vehicle: other",0 of 3
same,survivor count,"T/C endpoint: mean survival time, dose: 200.0 mg/kg/injection, schedule: Q04DX002 (ip), vehicle: other",0 of 3
CCOC(=S)SSC(=S)OCC,survivor count,"T/C endpoint: mean survival time, dose: 400.0 mg/kg/injection, schedule: Q01DX001 (ip), vehicle: Klucel (hydroxypropylcellulose) (HPC)",1 of 3
COC(=O)c1ccc(N(C)C/C(CN2C(=O)c3ccccc3C2=O)=N\O)cc1,survivor count,"T/C endpoint: mean survival time, dose: 300.0 mg/kg/injection, schedule: Q01DX001 (ip), vehicle: other",0 of 6
CCC(O)C[As](=O)(O)c1cccc(Cl)c1 (centres undefined),survivor count,"T/C endpoint: mean survival time, dose: 25.0 mg/kg/injection, schedule: Q01DX001 (ip), vehicle: saline with Tween-80",0 of 6
same,survivor count,"T/C endpoint: mean survival time, dose: 50.0 mg/kg/injection, schedule: Q01DX001 (ip), vehicle: saline with Tween-80",0 of 6
same,survivor count,[2],0 of 6
C[N+](C)(C)c1ccc(Cc2ccc([N+](C)(C)C)cc2)cc1,survivor count,"T/C endpoint: mean survival time, dose: 6.25 mg/kg/injection, schedule: Q04DX002 (ip), vehicle: saline with Tween-80",0 of 3
same,survivor count,"T/C endpoint: mean survival time, dose: 12.5 mg/kg/injection, schedule: Q04DX002 (ip), vehicle: saline with Tween-80",0 of 3
same,survivor count,"T/C endpoint: mean survival time, dose: 25.0 mg/kg/injection, schedule: Q04DX002 (ip), vehicle: saline with Tween-80",0 of 3
C1CCC2C[N-]CCC2C1.C1CCC2C[N-]CCC2C1.C1CCC2C[N-]CCC2C1.C1CCC2C[N-]CCC2C1.[I][Fe][I] (centres undefined),survivor count,[6],0 of 6
Cc1cc2c(=O)cc(-c3ccccc3)oc2c(C(=O)O)c1C,survivor count,"T/C endpoint: median survival time, dose: 500.0 mg/kg/injection, schedule: Q01DX005 (ip), vehicle: saline with Tween-80",0 of 6
Cc1c2c(ccc3ccccc32)c[n+]2ccccc12,survivor count,"T/C endpoint: mean survival time, dose: 25.0 mg/kg/injection, schedule: Q01DX009 (ip), vehicle: saline",0 of 6
same,survivor count,[10],0 of 6
O=C(Nc1ccc2c3c(ccc(NC(=O)c4ccccc4)c13)C=C2)c1ccccc1,survivor count,[5],6 of 6
N#CC1CC2C=CC1C2 (centres undefined),survivor count,"T/C endpoint: mean survival time, dose: 100.0 mg/kg/injection, schedule: Q04DX003 (ip), vehicle: saline with Tween-80",0 of 6
same,survivor count,[7],0 of 6
same,survivor count,[6],0 of 6
O=C1C=CC(=O)C1=Cc1ccc(O)cc1,survivor count,"T/C endpoint: mean survival time, dose: 20.0 mg/kg/injection, schedule: Q04DX002 (ip), vehicle: saline with Tween-80",0 of 3
same,survivor count,[8],0 of 3
same,survivor count,"T/C endpoint: mean survival time, dose: 200.0 mg/kg/injection, schedule: Q04DX002 (ip), vehicle: saline with Tween-80",0 of 3
same,survivor count,[9],0 of 3
O=[N+]([O-])c1ccc(Sc2ccc([N+](=O)[O-])cc2)cc1,survivor count,[6],6 of 6
CC(=O)OC1C(CO)OC2C1Oc1nc(=N)c(F)cn12 (centres undefined),T/C,[10],139 % of control
COc1cc(C2CC(C)(O)Oc3cc4c(cc32)OCO4)cc(OC)c1OC (centres undefined),T/C,"T/C endpoint: median survival time, dose: 86.4 mg/kg/injection, schedule: Q01DX005 (ip), vehicle: saline with Tween-80",132 % of control
same,T/C,"T/C endpoint: median survival time, dose: 144.0 mg/kg/injection, schedule: Q01DX005 (ip), vehicle: saline with Tween-80",131 % of control [5 of 6 alive]
same,T/C,"T/C endpoint: median survival time, dose: 240.0 mg/kg/injection, schedule: Q01DX005 (ip), vehicle: saline with Tween-80",146 % of control [4 of 6 alive]
same,T/C,[11],144 % of control [4 of 6 alive]
same,survivor count,[11],0 of 6 and 3 of 6
same,survivor count,"T/C endpoint: median survival time, dose: 666.67 mg/kg/injection, schedule: Q01DX005 (ip), vehicle: saline with Tween-80",2 of 6
same,survivor count,"T/C endpoint: median survival time, dose: 667.0 mg/kg/injection, schedule: Q01DX005 (ip), vehicle: saline with Tween-80",0 of 6
COC(=O)c1cc2cc3c(c(O)c2c(=O)o1)OC1(Cc2c(O)c4c(c(O)c2O1)C(=O)C(OC)CC4=O)CC3O (centres undefined),survivor count,[1],6 of 6
same,survivor count,[4],6 of 6
same,survivor count,[5],3 of 6
same,T/C,[3],140 % of control
same,survivor count,[12],0 of 6
OC1C=CC(O)C1 (centres undefined),survivor count,"T/C endpoint: mean survival time, dose: 300.0 mg/kg/injection, schedule: Q01DX001 (ip), vehicle: saline",0 of 6
COc1ncnc2c1c(C#N)cn2C1OC(CO)C(O)C1O (centres undefined),T/C,"T/C endpoint: mean survival time, dose: 12.5 mg/kg/injection, schedule: Q01DX009 (ip), vehicle: saline",128 % of control
N=c1ccc2ccccc2n1O,survivor count,"T/C endpoint: mean survival time, dose: 100.0 mg/kg/injection, schedule: Q04DX003 (ip), vehicle: other",0 of 6
same,survivor count,"T/C endpoint: mean survival time, dose: 200.0 mg/kg/injection, schedule: Q04DX003 (ip), vehicle: other",0 of 6
same,survivor count,"T/C endpoint: mean survival time, dose: 400.0 mg/kg/injection, schedule: Q04DX003 (ip), vehicle: other",0 of 6
ONc1nc(NO)c2[nH]cnc2n1,T/C,"T/C endpoint: mean survival time, dose: 5.3 mg/kg/injection, schedule: Q01DX001 (ip), vehicle: other",132 % of control
same,T/C,"T/C endpoint: mean survival time, dose: 19.0 mg/kg/injection, schedule: Q01DX001 (ip), vehicle: other",144 % of control
O=C(NCCBr)Nc1ccccc1,survivor count,"T/C endpoint: mean survival time, dose: 100.0 mg/kg/injection, schedule: Q04DX002 (ip), vehicle: Klucel (hydroxypropylcellulose) (HPC)",3 of 3
same,survivor count,"T/C endpoint: mean survival time, dose: 200.0 mg/kg/injection, schedule: Q04DX002 (ip), vehicle: Klucel (hydroxypropylcellulose) (HPC)",3 of 3
same,survivor count,"T/C endpoint: mean survival time, dose: 400.0 mg/kg/injection, schedule: Q04DX002 (ip), vehicle: Klucel (hydroxypropylcellulose) (HPC)",3 of 3
COC(=O)c1cccc(C)c1O,survivor count,[12],0 of 6
CC1=[N+]([O-])[N+]([O-])=C(C)C1=O,survivor count,"T/C endpoint: mean survival time, dose: 50.0 mg/kg/injection, schedule: Q01DX009 (ip), vehicle: Klucel (hydroxypropylcellulose) (HPC)",0 of 3
same,survivor count,"T/C endpoint: mean survival time, dose: 100.0 mg/kg/injection, schedule: Q01DX009 (ip), vehicle: Klucel (hydroxypropylcellulose) (HPC)",0 of 3
same,survivor count,"T/C endpoint: mean survival time, dose: 200.0 mg/kg/injection, schedule: Q01DX009 (ip), vehicle: Klucel (hydroxypropylcellulose) (HPC)",0 of 3

# Source: PubChem BioAssay AID256 (DTP/NCI, 2004)
